Results: PubChem BioAssay AID1347075 (National Center for Advancing Translational Sciences (NCATS), 2019)
Where “and” joins values, the source holds several entries; their conditions need not be identical. Identical values can stand only once. The whole screen tested about 400,000 compounds, of which about 5,500 (1.4%) were called active. The shares of active, inactive and inconclusive entries below differ from those in the screen. Calls follow the shape of the dose curve; as a rule, active = well fitted cell-killing curve with a large enough effect; inconclusive = small, poorly fitted or top-dose-only effect, or effect the other way; inactive = flat fitted curve, though single readings scatter. Potencies of inconclusive entries are doubtful fits and often do not repeat.

assay: qHTS assay for MDR1-selective chemotherapeutics: Primary screen using the parental adenocarcinoma cell KB-3-1; details: KB-3-1 viability, CellTiter-Glo ATP luminescence, 72 h; activity change, negative = cytotoxic: at 46.1 µM (top of the series); also: nearly all actives have a fitted effect of over 60% in size
In short: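 KB-3-1 cells, DMEM (no phenol red) + 10% FBS; compound by pin transfer, 72 h, 37 °C. Readout: CellTiter-Glo luminescence after 10 min. Data normalized, curve-fitted.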
% is scaled to controls: 0 for no effect and ±100 for the full control effect; potency is read from the fitted curve at half-maximal effect.

Row | SMILES | activity change, negative = cytotoxic | Potency
1 | CCN(CC)S(=O)(=O)c1ccc(OCC(=O)NCc2ccco2)cc1 | inactive: 8.1% | 
2 | O=C(O)c1ccc(Cl)cc1Nc1nc2cc(Cl)ccc2o1 |  | active: 16.4 µM
3 | C=CCN(c1ccccc1)S(=O)(=O)c1cccc(C(=O)NCc2ccncc2)c1 | inactive: -12.7% | 
4 | CCN(CC)c1ccc(/C=N/NC(=S)NCc2ccco2)cc1 |  | active: 18.4 µM
5 | CC(C)(C)n1nnnc1C(c1cccc(C#N)c1)N1CCCCCC1 (stereo not given) |  | inconclusive: 25.9 µM [cytotoxic, single point]
6 | O=c1c(Cl)c(N2CCOCC2)cnn1-c1ncc(C(F)(F)F)cc1Cl |  | inconclusive: 29.1 µM [rising, single point]
7 | CC(C)(C)N(Cc1ccc2c(c1)OCO2)C(=O)/C=C\S(=O)c1ccccc1 (stereo not given) |  | inconclusive: 3.66 µM [cytotoxic, full curve]
8 | O=C(Nc1nnc(S(=O)(=O)N2CCCCCC2)s1)c1ccc(Cl)cc1 |  | inconclusive: 14.6 µM [cytotoxic, single point]
9 | CSc1nn(CC(=O)Nc2cc(C)ccc2C)c(N)c1S(=O)(=O)c1ccccc1 |  | inconclusive: 20.6 µM [cytotoxic, single point]
10 | Cc1c(NC(=O)c2n[nH]c(=O)c3ccccc23)c(=O)n(-c2ccccc2)n1C |  | inconclusive: 29.1 µM [rising, single point]
11 | COc1ccc(Cl)cc1NC(=O)C(C)N(C)Cc1ccc(C(F)(F)F)cc1 (stereo not given) |  | inconclusive: 18.4 µM [cytotoxic, single point]
12 | COc1cccc(CNc2nc3cc(-c4ccc(OC)cc4C)sc3c(=O)n2C)c1 |  | inconclusive: 29.1 µM [cytotoxic, single point]
13 | COc1cc(CN(C)CCc2ccccc2)ccc1OCc1ccccc1 | inactive: -7.75% | 
14 | O=C(c1cccc(C(=O)N2CCN(c3ccccc3)CC2)c1)N1CCN(c2ccccc2)CC1 | inactive: 0% | 
15 | Cc1cc(C)c2sc(N(CCCN(C)C)C(=O)c3ccc(S(=O)(=O)N(C)Cc4ccccc4)cc3)nc2c1 |  | inconclusive: 20.6 µM [cytotoxic, single point]
16 | Clc1ccccc1C1CC(c2ccccc2)=Nc2ccccc2N1 (stereo not given) |  | inconclusive: 14.6 µM [cytotoxic, partial curve, poor fit]
17 | O=C(O)CSCC(=O)N1CCN(c2nc3cc(Cl)ccc3s2)CC1 | inactive: 9.44% | 
18 | CCOCCCNC(=O)C(NC(=O)Cc1cccs1)c1ccc(C)cc1 (stereo not given) |  | inconclusive: 25.9 µM [cytotoxic, single point]
19 | Cc1nnsc1C(=O)N/N=C/c1cccc(C(F)(F)F)c1 |  | inconclusive: 29.1 µM [rising, single point]
20 | CC(C)C(=O)Nc1nnc(S(=O)(=O)N2c3ccccc3CC2C)s1 (stereo not given) |  | inconclusive: 29.1 µM [rising, single point]
21 | COc1ccc(CC(=O)NNC(=O)c2nn(Cc3ccccc3)c(=O)c3ccccc23)cc1OC | inactive: -1.75% | 
22 | CC(NC(=O)c1cn(C)c2ccc(S(=O)(=O)N3CCCC3)cc2c1=O)c1ccccc1 (stereo not given) | inactive: 16.4% | 
23 | COC(=O)c1c(C)sc(-c2c(-c3ccc(OC)c(F)c3)[nH]c3c2c(=O)n(C)c(=O)n3C)c1O | inactive: 1.7% | 
24 | COc1cc(OC)cc(C(=O)Nc2ccc3c(c2)n(C)c(=O)n3C)c1 |  | inconclusive: 23.1 µM [cytotoxic, single point]

Row | SMILES | activity change, negative = cytotoxic | Potency
25 | CCN(CC)C(=O)C1CCCN(c2ccc([N+](=O)[O-])cc2/C=N/NC(=O)c2cccc(O)c2)C1 (stereo not given) |  | inconclusive: 29.1 µM [rising, single point]
26 | CCN(c1cccc(C)c1)S(=O)(=O)c1c(C)nc2sc(C)cn2c1=O | inactive: -18% | 
27 | Cc1nc2c(OCc3ccc(C(F)(F)F)cc3)cccn2c1N(C)C(=O)CCC1CCCC1 |  | inconclusive: 25.9 µM [cytotoxic, single point]
28 | O=C(/C=C/c1cn(-c2ccccc2)nc1-c1cccc(Cl)c1)N1CCN(c2ccccn2)CC1 |  | inconclusive: 29.1 µM [cytotoxic, single point]
29 | O=C(NCCc1nc2ccccc2[nH]1)/C(=C/c1ccc2c(c1)OCO2)NC(=O)c1ccccc1 |  | inconclusive: 29.1 µM [rising, single point]
30 | OC[C@@H]1CN(Cc2ccc(Cl)cc2)C[C@H](n2cnc3c(N4CCOCC4)ncnc32)O1 | inactive: 0% | 
31 | O=C(N=Nc1c(O)n(Cc2ccccc2)c2ccccc12)c1cc2ccccc2cc1O |  | inconclusive: 18.4 µM [cytotoxic, single point]
32 | COC(=O)C(NNc1ccccc1)(NC(=O)c1cccc(F)c1)C(F)(F)F (stereo not given) |  | inconclusive: 20.6 µM [cytotoxic, single point]
33 | O=C(O)c1c(-c2ccccc2)c(-c2ccccc2)nc2ccccc12 | inconclusive: 10.1% | 
34 | Cc1ccc(CNC(=O)Cn2c3ncccc3c(=O)n2-c2ccc(C)cc2)cc1 | inactive: 1.57% | 
35 | COc1ccc2[nH]c3c(c2c1)CCNC3=O |  | inconclusive: 20.6 µM [cytotoxic, single point]
36 | CC(=O)c1sc(NC(=O)CCS(=O)(=O)c2ccccc2)nc1C |  | inconclusive: 29.1 µM [cytotoxic, single point]
37 | O=C(NCCc1nc2ccccc2n1CCOc1ccc2ccccc2c1)C1CCCCC1 | inactive: 25.3% | 
38 | COc1ccc(S(=O)(=O)NC2CCSc3ccccc32)cc1OC (stereo not given) | inactive: -3.55% | 
39 | COc1cc(Cn2c3ccc(NC(=O)CCc4ccc(O)cc4)cc3c(=O)n2C)ccc1F |  | active: 5.8 µM
40 | CCC(=O)Nc1ccc(C(=O)N/N=C/c2c(C)[nH]c3ccccc23)cc1 | inactive: 2.48% | 
41 | COc1ccc(-c2csc(NC(=O)CSc3nc(SC)ns3)n2)cc1 | inactive: -4.17% | 
42 | CCSc1ccc(C(=O)Nc2cccc(C)n2)cc1[N+](=O)[O-] |  | inconclusive: 11.6 µM [cytotoxic, partial curve, poor fit]
43 | COc1ccc(CNC(C)CCc2ccccc2)cc1 (stereo not given) | inactive: 6.15% | 
44 | Cc1cc(C)n(-c2ccc(C(=O)Nc3ccc4c(c3)OCO4)cc2)n1 | inactive: -2.14% | 
45 | CCOC(=O)C(C(=O)OCC)C(Nc1cccc(Br)c1)c1ccccc1 (stereo not given) |  | inconclusive: 29.1 µM [cytotoxic, single point]
46 | Cc1ccc(C(C(=O)NCc2ccccc2)N(Cc2cccs2)C(=O)c2ccc3c(c2)OCCO3)cc1 (stereo not given) |  | inconclusive: 20.6 µM [cytotoxic, single point]
47 | NN/C(=C\[N+](=O)[O-])Nc1ccc(Cl)cc1 |  | inconclusive: 32.6 µM [cytotoxic, single point]
48 | COc1ccc(CNc2nnnn2C)cc1 | inactive: 5.95% | 

Row | SMILES | activity change, negative = cytotoxic | Potency
49 | CN(C)CCOCCOc1ccc(Cl)c2ccccc12 |  | inconclusive: 14.6 µM [cytotoxic, partial curve, poor fit]
50 | COC(=O)Cn1c(CN(C)Cc2ccccc2)nc2c1c(=O)n(C)c(=O)n2C |  | inconclusive: 29.1 µM [rising, single point]
51 | COc1ccc(N=Nc2c(C)n[nH]c2C)cc1 |  | inconclusive: 20.6 µM [cytotoxic, single point]
52 | Cc1ccc(CS(=O)(=O)c2ncc(Cl)c(C(=O)Nc3ccc(OC(F)F)cc3)n2)cc1 |  | active: 23.1 µM
53 | O=[N+]([O-])c1ccc(O)c(-c2ccnc3cc(-c4ccccc4)nn23)c1 |  | inconclusive: 23.1 µM [cytotoxic, partial curve]
54 | COc1cc(OC)cc(C2=Cc3ccccc3C(CC(C)=O)N2c2ccc(-c3cccs3)cc2)c1 (stereo not given) |  | inconclusive: 23.1 µM [cytotoxic, single point]
55 | COc1ccccc1C=NN1C(=O)CSC1=S |  | inconclusive: 16.4 µM [rising, partial curve, poor fit]
56 | O=C(N[C@H]1CCC(=O)N([C@H](CSc2ccccc2)Cc2ccccc2)CC1)OCc1ccccc1 |  | inconclusive: 18.4 µM [cytotoxic, single point] and inconclusive: 23.1 µM [cytotoxic, single point]
57 | C/C(=N\NC(=O)CN(c1ccccc1)S(C)(=O)=O)c1ccccc1O |  | inconclusive: 18.4 µM [cytotoxic, single point]
58 | O=[N+]([O-])c1cccc(OCCN2CCC(Cc3ccccc3)CC2)c1 | inactive: -0.0494% | 
59 | O=C(Nc1ccccc1Cl)c1ccc(=O)[nH]n1 |  | active: 7.31 µM
60 | COc1ccc(-c2ccc(OC(=O)NC3CCS(=O)(=O)C3)cc2)cc1 (stereo not given) |  | inconclusive: 14.6 µM [cytotoxic, single point]
61 | COc1ccc(OCCN2CCC(C(=O)NC(c3ccc(Cl)cc3)c3cccnc3)CC2)cc1 (stereo not given) | inactive: 0% | 
62 | O=C(Nc1ccc([N+](=O)[O-])cc1)OC1CCS(=O)(=O)C1 (stereo not given) | inactive: 22.6% | 
63 | CSCCC(CO)NC(=O)OCc1ccccc1 (stereo not given) |  | inconclusive: 23.1 µM [rising, partial curve, poor fit]
64 | CN1OC[C@@H]2CN(S(=O)(=O)c3ccccc3)[C@H](c3ccc(N4CCCCC4)cc3)C[C@@H]21 | inconclusive: -19.4% | 
65 | COC(=O)C1=C(C)N(Cc2ccccc2)C(=NCc2ccc(OC)cc2)N[C@H]1c1ccccc1 | inactive: -14.6% | 
66 | O=C(COC(=O)c1cc(S(=O)(=O)N2CCOCC2)ccc1F)c1ccc[nH]1 |  | inconclusive: 5.17 µM [rising, partial curve, poor fit]
67 | CCC(C)NC(=O)c1cnn(-c2cccc(F)c2)c1-n1cccc1 (stereo not given) | inactive: -0.989% | 
68 | CC(=O)n1cc(N(C(=O)CCl)c2ccc(Cl)cc2)c2ccccc21 |  | inconclusive: 25.9 µM [cytotoxic, single point]
69 | CCc1ccc2oc(-c3cc(NC(=O)COc4ccc(C)cc4)ccc3O)nc2c1 |  | inconclusive: 6.51 µM [rising, full curve, poor fit]
70 | CCOC(=O)N1CC=C2C(C#N)=C(N)C(C#N)(C#N)[C@H](c3ccsc3)[C@H]2C1 |  | inconclusive: 20.6 µM [rising, partial curve, poor fit]
